These are yes or no findings as the source states them, for the method shown. Binding seen in cells or lysates may run through a third protein. Some binding calls cover weakened binding; strength is not graded here. Sequences can lack the tags named with a protein.
Columns and labels:
[1] = target: T1, MBP-Isc10^1-170 (S. cerevisiae) (UniProt P32645); assay: pull-down; MBP-Isc10 forms coexpressed in bacteria with Smk1 alone or with Ssp2 alone; material retained on amylose-agarose beads analysed by immunoblot
T1 sequence: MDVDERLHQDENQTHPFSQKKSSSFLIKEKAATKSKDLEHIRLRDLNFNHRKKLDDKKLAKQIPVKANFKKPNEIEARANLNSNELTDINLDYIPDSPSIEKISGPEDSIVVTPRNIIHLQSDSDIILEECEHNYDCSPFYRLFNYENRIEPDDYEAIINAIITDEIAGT

[2] = target: T2, MBP-Isc10^181-267 (S. cerevisiae) (UniProt P32645); assay: as above
T2 sequence: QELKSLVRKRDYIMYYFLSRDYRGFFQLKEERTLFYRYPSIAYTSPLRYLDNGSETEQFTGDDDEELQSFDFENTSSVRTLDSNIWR

[3] = target: T3, MBP-Isc10 (full-length Isc10, 1-267) (S. cerevisiae) (UniProt P32645); assay: pull-down; MBP-Isc10 forms coexpressed with Smk1, Ssp2^KAD-GST and Cak1 in E. coli BL-21 DE3; soluble extract bound to amylose beads at 4 °C, washed with lysis buffer (25 mM Tris-Cl pH 7.4, 5 mM MgCl2, 300 mM NaCl, 1 mM DTT, 0.5% NP-40); bound Smk1 and Ssp2 (GST) detected by immunoblot
T3 sequence: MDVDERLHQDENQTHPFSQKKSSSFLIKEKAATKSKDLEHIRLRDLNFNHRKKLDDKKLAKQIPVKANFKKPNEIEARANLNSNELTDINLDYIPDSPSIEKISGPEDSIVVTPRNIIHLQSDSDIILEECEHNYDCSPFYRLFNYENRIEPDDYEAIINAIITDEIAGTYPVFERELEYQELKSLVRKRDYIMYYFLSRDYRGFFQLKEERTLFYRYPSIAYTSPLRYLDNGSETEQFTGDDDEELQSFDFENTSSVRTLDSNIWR

[4] = target: T1, MBP-Isc10^1-170 (S. cerevisiae); assay: as above
[5] = target: T4, MBP-Isc10^1-203 (S. cerevisiae) (UniProt P32645); assay: as above
T4 sequence: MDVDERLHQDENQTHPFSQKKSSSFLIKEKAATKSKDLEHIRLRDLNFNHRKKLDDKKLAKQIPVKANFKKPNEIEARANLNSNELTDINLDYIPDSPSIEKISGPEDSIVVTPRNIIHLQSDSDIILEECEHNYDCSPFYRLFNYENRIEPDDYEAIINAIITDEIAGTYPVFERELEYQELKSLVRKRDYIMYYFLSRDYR

[6] = target: T5, MBP-Isc10^1-246 (S. cerevisiae) (UniProt P32645); assay: as above
T5 sequence: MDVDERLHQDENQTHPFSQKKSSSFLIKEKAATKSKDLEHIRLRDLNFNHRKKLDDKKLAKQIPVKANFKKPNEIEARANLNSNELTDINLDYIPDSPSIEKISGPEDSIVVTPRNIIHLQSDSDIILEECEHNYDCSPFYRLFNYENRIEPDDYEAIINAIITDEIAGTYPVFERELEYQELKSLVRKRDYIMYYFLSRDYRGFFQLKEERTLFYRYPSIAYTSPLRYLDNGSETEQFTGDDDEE

[7] = target: T6, MBP-Isc10^111-203 (S. cerevisiae) (UniProt P32645); assay: as above
T6 sequence: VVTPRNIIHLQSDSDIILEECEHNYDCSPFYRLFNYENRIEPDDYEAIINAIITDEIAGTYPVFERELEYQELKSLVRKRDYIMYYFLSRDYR

[8] = target: T7, MBP-Isc10^146-203 (S. cerevisiae) (UniProt P32645); assay: as above
T7 sequence: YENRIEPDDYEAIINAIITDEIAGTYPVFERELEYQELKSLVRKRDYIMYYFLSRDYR

[9] = target: T2, MBP-Isc10^181-267 (S. cerevisiae); assay: as above

Measured: binding

B1: Smk1 (enzyme, UniProt P41808 1-388)
chain: MNCTLTDNTRAINVASNLGAPQQRTIFAKERISIPGYYEIIQFLGKGAYGTVCSVKFKGRSPAARIAVKKISNIFNKEILLKRAIRELKFMNFFKGHKNIVNLIDLEIVTSSPYDGLYCYQELIDYDLAKVIHSSVQLSEFHIKYFLYQILCGLKYIHSADVIHRDLKPGNILCTLNGCLKICDFGLARGIHAGFFKCHSTVQPHITNYVATRWYRAPELLLSNQPYSKSVDIWAVGCILAEFYARKPVFMGRDSMHQIFEIIKVLGTPDKDILIKFGTIKAWNLGKNSNNPVYKKIPWSNIFPFASHEAINLIESLLHWDSTHRLNVEQAISHPFLNEVRKPDDEPVCLQGPFDFTYESELNSMSKLRDYLVEEVKNFKTDLSSSSL
binds: [1] | [2] | [3] | [4] | [5] | [6] | [7] | [8] | [9]

B2: Ssp2^KAD-GST (Ssp2 residues 137-371 fused to glutathione-S-transferase) (domain or fragment, UniProt Q08646 137-371)
chain: KGKVYSEESEVVDEKTAGSQNPALLKTRSISLNDIPRGTGISSVLSQVRGGSLERIIVYRYDTPERSLHKVDLFFLNYEGAQSFMRYAKTNIFKVNGVQLKPEWIFLESTYENIMKEQSVNRIIEEEKFISRCLIVKKSSTTAMPNKSNLNKGQTLENIDIQELEKDFQNFGEVLEITPIVSRKLCVSIFFYDISSAMRAMEEYEQKGSYLYNKYFKTWTIWYGKDITDQPCIDL
binds: [1] | [2] | [3] | [4] | [5] | [6] | [7] | [8] | [9]
